Measurements published in PubChem BioAssay AID248 (DTP/NCI, 2004).
The list is a part of this screen's results and no random one: it covers a few groups of compounds. Not every dose and run of a compound is shown. T/C: endpoint of the treated group in % of that of the vehicle group. For survival time, this PubChem deposit counts one and a half times the control or more as active, and values a quarter to a half above the control carry no call in these data; other NCI protocols may use other cut-offs. Some T/C values are marked as having no survivor count here; that says nothing about deaths at the dose. Schedule codes are those of the source, read here as Q, the interval in days (D) or hours (H), X, the number of doses. Some doses were run more than once; their values stand side by side, smallest first.

Test system: L1210 leukemia ip in BDF1 mice, survival T/C
Experiment: NCI In Vivo Anticancer Drug Screen. Data for tumor model L1210 Leukemia (intraperitoneal) in B6D2F1 (BDF1) mice
Conditions: T/C endpoint: mean survival time, higher T/C = longer survival
[1] = dose: 100.0 mg/kg/injection, schedule: Q01DX001 (ip), vehicle: saline
[2] = dose: 100.0 mg/kg/injection, schedule: Q01DX009 (ip), vehicle: saline
[3] = dose: 200.0 mg/kg/injection, schedule: Q01DX001 (ip), vehicle: saline
[4] = dose: 400.0 mg/kg/injection, schedule: Q01DX001 (ip), vehicle: saline

Q: For CCOC(=O)N1CCC(=O)CC1, which T/C [1] is on record?
A: 100 % of control [survivor count not shown]

Q: What about the T/C [2] of the same molecule?
A: 102 % of control [survivor count not shown]

Q: And the T/C (dose: 100.0 mg/kg/injection, schedule: Q04DX003 (ip), vehicle: saline)?
A: 100 % of control [survivor count not shown]

Q: What about the T/C [3] of the same molecule?
A: 105 % of control [survivor count not shown]

Q: And the T/C (dose: 200.0 mg/kg/injection, schedule: Q01DX009 (ip), vehicle: saline)?
A: 96 % of control [survivor count not shown]

Q: And the T/C (dose: 200.0 mg/kg/injection, schedule: Q04DX003 (ip), vehicle: saline)?
A: 110 % of control [survivor count not shown]

Q: And the T/C [4]?
A: 98 % of control [survivor count not shown]

Q: And the T/C (dose: 400.0 mg/kg/injection, schedule: Q01DX009 (ip), vehicle: saline)?
A: 100 % of control [survivor count not shown]

Q: What about the T/C (dose: 400.0 mg/kg/injection, schedule: Q04DX003 (ip), vehicle: saline) of the same molecule?
A: 107 % of control [survivor count not shown]

Q: COc1c(C)cc(N(CCCl)CCCl)c2ccccc12 was tested. Which T/C (dose: 10.0 mg/kg/injection, schedule: Q01DX009 (ip), vehicle: carboxymethylcellulose (CMC)) did it give?
A: 116 % of control [survivor count not shown]

Q: And the T/C (dose: 18.0 mg/kg/injection, schedule: Q01DX009 (ip), vehicle: carboxymethylcellulose (CMC))?
A: 109 % of control [survivor count not shown]

Q: And the T/C (dose: 20.0 mg/kg/injection, schedule: Q01DX009 (ip), vehicle: carboxymethylcellulose (CMC))?
A: 126 % of control [survivor count not shown]

Q: What about the T/C (dose: 25.0 mg/kg/injection, schedule: Q01DX001 (ip), vehicle: carboxymethylcellulose (CMC)) of the same molecule?
A: 103 % of control [survivor count not shown]

Q: What about the T/C (dose: 29.0 mg/kg/injection, schedule: Q01DX009 (ip), vehicle: carboxymethylcellulose (CMC)) of the same molecule?
A: 119 [survivor count not shown] and 122 % of control [survivor count not shown]

Q: And the T/C (dose: 29.0 mg/kg/injection, schedule: Q01DX009 (ip), vehicle: saline)?
A: 134 % of control [survivor count not shown]

Q: What about the T/C (dose: 45.0 mg/kg/injection, schedule: Q01DX009 (ip), vehicle: carboxymethylcellulose (CMC)) of the same molecule?
A: 120 [survivor count not shown] and 122 % of control [survivor count not shown]

Q: And the T/C (dose: 45.0 mg/kg/injection, schedule: Q01DX009 (ip), vehicle: saline)?
A: 157 % of control [survivor count not shown]

Q: What about the T/C (dose: 50.0 mg/kg/injection, schedule: Q01DX001 (ip), vehicle: carboxymethylcellulose (CMC)) of the same molecule?
A: 111 % of control [survivor count not shown]

Q: And the T/C (dose: 65.0 mg/kg/injection, schedule: Q01DX009 (ip), vehicle: carboxymethylcellulose (CMC))?
A: 91 [survivor count not shown] and 132 % of control [survivor count not shown]

Q: And the T/C (dose: 65.0 mg/kg/injection, schedule: Q01DX009 (ip), vehicle: saline)?
A: 140 % of control [survivor count not shown]

Q: And the T/C (dose: 90.0 mg/kg/injection, schedule: Q01DX001 (ip), vehicle: saline)?
A: 116 [survivor count not shown] and 117 % of control [survivor count not shown]

Q: What about the T/C (dose: 100.0 mg/kg/injection, schedule: Q01DX001 (ip), vehicle: carboxymethylcellulose (CMC)) of the same molecule?
A: 117 % of control [survivor count not shown]

Q: What about the T/C [1] of the same molecule?
A: 148 % of control [survivor count not shown]

Q: What about the T/C (dose: 100.0 mg/kg/injection, schedule: Q01DX009 (ip), vehicle: carboxymethylcellulose (CMC)) of the same molecule?
A: 96 [survivor count not shown] and 102 % of control [survivor count not shown]

Q: What about the T/C [2] of the same molecule?
A: 97 % of control [survivor count not shown]

Q: And the T/C (dose: 135.0 mg/kg/injection, schedule: Q01DX001 (ip), vehicle: saline)?
A: 118 [survivor count not shown] and 126 % of control [survivor count not shown]

Q: And the T/C (dose: 177.6 mg/kg/injection, schedule: Q01DX001 (ip), vehicle: carboxymethylcellulose (CMC))?
A: 120 % of control [survivor count not shown]

Q: What about the T/C (dose: 200.0 mg/kg/injection, schedule: Q01DX001 (ip), vehicle: carboxymethylcellulose (CMC)) of the same molecule?
A: 123 % of control [survivor count not shown]

Q: And the T/C [3]?
A: 122 [survivor count not shown], 129 [survivor count not shown], 160 % of control [survivor count not shown]

Q: And the T/C (dose: 266.8 mg/kg/injection, schedule: Q01DX001 (ip), vehicle: carboxymethylcellulose (CMC))?
A: 127 % of control [survivor count not shown]

Q: What about the T/C (dose: 300.0 mg/kg/injection, schedule: Q01DX001 (ip), vehicle: saline) of the same molecule?
A: 116 [survivor count not shown] and 134 % of control [survivor count not shown]

Q: And the T/C (dose: 400.0 mg/kg/injection, schedule: Q01DX001 (ip), vehicle: carboxymethylcellulose (CMC))?
A: 127 [survivor count not shown] and 129 % of control [survivor count not shown]

Q: What about the T/C [4] of the same molecule?
A: 113 % of control [survivor count not shown]

Q: And the T/C (dose: 600.0 mg/kg/injection, schedule: Q01DX001 (ip), vehicle: carboxymethylcellulose (CMC))?
A: 125 % of control [survivor count not shown]
